Measured values: PubChem BioAssay AID540256 (National Center for Advancing Translational Sciences (NCATS), 2011)
The whole screen tested about 300,000 compounds, of which about 3,700 (1.2%) were called active. The shares of active, inactive and inconclusive entries below differ from those in the screen. Calls follow the shape of the full dose curve; tested in HEK293 cells. A potency beside an inconclusive call is a rough fit, not a confirmed value.

Test: qHTS for Inhibitors of binding or entry into cells for Lassa Virus; also: nearly all actives have a fitted effect of over 50% in size
Conditions: Lassa virus pseudotype entry inhibition, cell reporter; activity change, negative = inhibition: at 37.9 µM (top of the series) unless noted
% is scaled to controls: 0 for no effect and ±100 for the full control effect; potency is read from the fitted curve at half-maximal effect.

SMILES	activity change, negative = inhibition	Potency
Cc1ccc2onc(CNC(=O)N(C)Cc3ccccc3)c2c1	inactive: -2.71% [at 46.1 µM]	
CCOC(=O)c1sc2nc(N3CCOCC3)c3c(c2c1N)CCCC3		inconclusive: 1.03 µM [inhibitor, full curve, poor fit]
CC(C)(C)OC(=O)N1CCN(c2ccc(CNC(=O)c3ccc(Cl)cc3)cc2)CC1		inconclusive: 18.3 µM [inhibitor, single point]
CC(C)NC(=O)C(=O)NNC(=O)CCc1ccccc1		inconclusive: 2.82 µM [inhibitor, partial curve, poor fit]
CCCN(CCC)C(=O)CCSCCC(=O)N(CCC)CCC	inactive: -0.761%	
Cc1cc(C)cc(NC(c2cccc(Cl)c2)c2nnc(-c3ccccc3)o2)c1 (stereo not drawn)	inactive: -29.6% [at 46.1 µM]	
C/C(N)=C(/C#N)C(=O)COC(=O)CC12CC3CC(CC(C3)C1)C2		inconclusive: 29.1 µM [inhibitor, single point]
COc1cccc(C(=O)COc2cccc(NC(=O)c3cccc([N+](=O)[O-])c3)c2)c1		inconclusive: 10 µM [inhibitor, partial curve, poor fit]
Cc1ccc(CNCc2ccc3c(c2)OCO3)cc1		inconclusive: 11.2 µM [inhibitor, partial curve, poor fit]
Cc1cc(=O)oc(C)c1C(=O)Nc1ccc2nsnc2c1	inactive: 6.22%	
Cc1ccccc1OCC(=O)NCC(c1ccc(Cl)cc1)N1CCOCC1 (stereo not drawn)	inactive: -0.506% [at 46.1 µM]	
O=C(CSc1nc2ccccc2c(=O)n1Cc1ccc(C(=O)NC2CC2)cc1)NCc1ccco1		inconclusive: 29.1 µM [inhibitor, single point]
CSc1nc(N2CCOCC2)c2ccccc2n1	inactive: -2.65%	
CCCCOc1ccc(S(=O)(=O)Nc2ccc(-c3ccc(N4CCCCC4)nn3)cc2)cc1	inactive: 6.97% [at 46.1 µM]	
O=C(CSc1nnc(NC(=O)c2ccco2)s1)Nc1ccc(F)cc1	inactive: 3.23%	
Cc1cc(C)nc(/N=C(\N)Nc2ccc(OCc3ccccc3)cc2)n1		inconclusive: 35.5 µM [inhibitor, single point]
COc1ccc(C(=O)NN/C(=N/S(=O)(=O)c2ccc(C)cc2)c2ccccc2)cc1		active: 8.91 µM
OC[C@H]1NC[C@@H](O)[C@@H]1O		inconclusive: 5.8 µM [activator, partial curve, poor fit]
COCCCNC(=O)c1ccc(CSCc2ccc(C)cc2)o1		inconclusive: 28.2 µM [inhibitor, single point]
O=C(COc1ccc(Cl)cc1)N(Cc1ccccc1)c1ccccn1	inactive: -6.82%	
COC(=O)c1ccccc1NC(=O)COC(=O)/C=C/c1cccs1	inactive: -28.2%	
Cc1ccc2c(c1)N(CCC(=O)NCC1COc3ccccc3O1)C(=O)CO2 (stereo not drawn)	inactive: -9.07%	
COc1cc2c(cc1OC)C(COc1ccccc1OC)N(C(=O)c1ccc(S(=O)(=O)N3CCCC3)cc1)CC2 (stereo not drawn)		inconclusive: 14.1 µM [inhibitor, partial curve, poor fit]
CC(=O)NCCc1nc2ccccc2n1CCc1ccccc1	inactive: 0.588% [at 46.1 µM]	
Cc1nc([N+](=O)[O-])c(Sc2nc3ccc([N+](=O)[O-])cc3[nH]2)n1Cc1ccccc1	inactive: 5.58%	
O=C(Nc1ccccc1)c1cnc2ccccc2n1		inconclusive: 3.66 µM [activator, full curve]

Structural class, those above containing a furan ring, fused or not (3)
SMILES	activity change, negative = inhibition	Potency
O=C(CSc1nc2ccccc2c(=O)n1Cc1ccc(C(=O)NC2CC2)cc1)NCc1ccco1		inconclusive: 29.1 µM [inhibitor, single point]
O=C(CSc1nnc(NC(=O)c2ccco2)s1)Nc1ccc(F)cc1	inactive: 3.23%	
COCCCNC(=O)c1ccc(CSCc2ccc(C)cc2)o1		inconclusive: 28.2 µM [inhibitor, single point]

(next part)

SMILES	activity change, negative = inhibition	Potency
Cc1onc(-c2c(F)cccc2Cl)c1C(=O)c1ccc(F)cc1		inconclusive: 12.6 µM [inhibitor, single point]
Cc1ccc(N(C)S(=O)(=O)c2ccc(-c3cnc(C4CC4)o3)cc2)cc1		active: 1.41 µM
COc1ccc(N2CC2c2ccncc2)cc1 (stereo not drawn)	inactive: -4.58% [at 46.1 µM]	
CCn1c(CN2CCCCC2)nc2cc(NC(=O)COc3cc(C)ccc3C(C)C)ccc21	inactive: -2.34% [at 46.1 µM]	
CCOC(=O)c1cc(-c2ccccc2)n(-c2cccc(C(=O)NC(C)CC)c2)c1C (stereo not drawn)	inactive: -15.7% [at 46.1 µM]	
COc1ccc(N(C)S(=O)(=O)c2cccc(C(=O)Nc3ccc(OC)nc3)c2)cc1	inactive: -26.8%	
Cc1c(/C=N\NC(=O)C2(C)CC2(Cl)Cl)cnn1C (stereo not drawn)	inactive: -1.24%	
Cn1c(SCC#N)nnc1-c1ccc2c(c1)OCO2	inactive: -8.19%	
Cc1cnc(C(=O)Nc2nccs2)cn1		inconclusive: 5.01 µM [activator, single point]
COc1ccc(N2CCN(C(=O)c3cn(C4CCCCC4)c(=O)c4c3c3ccccc3n4C)CC2)cc1		inconclusive: 7.08 µM [inhibitor, partial curve, poor fit]
Cc1cc(C(=O)N/N=C/c2cccc([N+](=O)[O-])c2O)n[nH]1	inactive: 22.3%	
NC(=O)CSc1nc2ccccc2c(=O)n1Cc1ccco1	inactive: 2.64%	
CCOC(=O)Cn1nnnc1CN(Cc1cccs1)Cc1cc2cc(C)ccc2[nH]c1=O	inactive: -5.3%	
COC(=O)CSCc1nc(-c2ccc(C(=O)OC)cc2)oc1C		active: 7.08 µM
COc1cc(C2C(C#N)=C(C)NC3=C2C(=O)c2ccccc23)cc(OC)c1OC (stereo not drawn)		inconclusive: 0.291 µM [inhibitor, full curve]
COC(=O)c1cc(OC)c(OC)c(OC)c1NC(=O)c1cc(=O)n(C)c(=O)n1C	inactive: -17.2% [at 46.1 µM]	
CCOc1ccc(NC(=O)CSc2ccc3ccccc3n2)cc1	inactive: 0.424% [at 46.1 µM]	
Cc1cccc(C(=O)c2cnc3ccccc3c2-c2ccccc2)c1	inactive: -5.42%	
FC(F)(F)Oc1ccc(NC(=S)NCc2ccccc2)cc1		inconclusive: 35.5 µM [inhibitor, single point]
CCNc1ccc2noc3c2c1C(=O)c1ccccc1-3	inactive: -11.1%	
CC1CC2(CCCCC2)N2C(=O)C(=O)c3cccc1c32 (stereo not drawn)	inactive: -7.65%	
COc1ccc(C)cc1NC(=O)CN1CCCN(S(=O)(=O)c2ccc(Br)cc2)CC1		inconclusive: 7.08 µM [inhibitor, partial curve, poor fit]
CCOc1ccc2[nH]c(C(=O)N/N=C/c3ccc(OC)cc3)cc2c1		inconclusive: 0.316 µM [inhibitor, full curve, poor fit]
COc1cc(/C=N/OCC(=O)NC2CCCCC2C)ccc1OCc1ccc(Cl)cc1 (stereo not drawn)		inconclusive: 15.8 µM [inhibitor, single point]
Cn1cc(C(=O)N2CCN(c3cccc(Cl)c3)CC2)c(=O)c2cc(S(=O)(=O)N3CCCC3)ccc21	inactive: -5.23% [at 46.1 µM]	
COc1cc(C(=O)OCC2CC(c3ccccc3)=NO2)cc(OC)c1OC (stereo not drawn)		inconclusive: 1.26 µM [activator, partial curve, poor fit]

SMILES	activity change, negative = inhibition	Potency
CC(C)(CC(=O)O)CC(=O)NNc1ncccc1C#N	inactive: 4.72% [at 46.1 µM]	
CCOC(=O)CSc1nc(N)c(C#N)c(-c2ccc(OC)cc2)c1C#N	inactive: -1.7%	
O=C(Nc1ccc(Br)cc1)c1ccc(CSC2=NCCS2)cc1	inactive: -16.6%	
CCCOc1ccc(S(=O)(=O)N2CCOCC2)cc1[N+](=O)[O-]		inconclusive: 0.794 µM [inhibitor, single point]
N=C1C(c2nc3ccccc3s2)=C(O)CN1c1ccccc1	inactive: -16.5% [at 46.1 µM]	
Cc1ccccc1Nc1nc(NCc2ccco2)c2ccccc2n1		inconclusive: 8.91 µM [inhibitor, partial curve, poor fit]
CC(Nc1ccnc2cc(Cl)ccc12)c1ccc(S(N)(=O)=O)cc1 (stereo not drawn)		inconclusive: 1.26 µM [inhibitor, single point]
COC(=O)c1ccc(C(=O)OC)c(NC(=O)c2c(-c3ccccc3)noc2C)c1	inactive: -6.05% [at 46.1 µM]	
Cc1cc(Oc2nnnn2-c2ccccc2)ccc1Cl		inconclusive: 18.3 µM [activator, single point]
CC12CN3CC(C)(CN(C1)C3c1ccc([N+](=O)[O-])o1)C2 (stereo not drawn)		inconclusive: 35.5 µM [activator, single point]
N=C(N1CCCc2ccccc21)N1CCCc2ccccc21	inactive: -15% [at 46.1 µM]	
CCOc1cc(/C=C2\C(=N)N3N=C(S(C)(=O)=O)SC3=NC2=O)ccc1OCCOc1cccc(OC)c1		inconclusive: 8.91 µM [inhibitor, partial curve]
CCCCC(CC)CNC(=O)CCCCn1c(=O)[nH]c2ccsc2c1=O (stereo not drawn)		inconclusive: 35.5 µM [inhibitor, single point]
O=C(CCCCCN1CCN(c2ccccc2-c2ccccc2)CC1)NC1CCCc2ccccc21 (stereo not drawn)		inconclusive: 16.4 µM [inhibitor, partial curve]
C=CCN(c1ccccc1)S(=O)(=O)c1cccc(C(=O)Nc2cc(C)ccn2)c1		active: 17.8 µM
CCOc1ccc(N(C(C)=O)c2nc(C)cc(C)c2C#N)cc1		inconclusive: 2 µM [inhibitor, full curve]
CN(C)CCOc1cc(Cl)cc(Cl)c1	inactive: 19.3%	
Cc1ccc(S(=O)(=O)N(CC(=O)N2CCC(C)CC2)c2cccc(C)c2)cc1		inconclusive: 2.31 µM [inhibitor, partial curve, poor fit]
Cc1ccc(C(=O)CSc2nnnn2C(C)C)c(C)c1		active: 7.08 µM
CCOc1ccccc1NC(=O)c1cc(-c2cc(OC)c(OC)c(OC)c2)nc2ccccc12		active: 11.2 µM
CCC(=O)Nc1nc2ccccc2n1CCN1CCOCC1		inconclusive: 14.1 µM [inhibitor, single point]
CC(=O)c1cccc(NC(=O)CCn2nc(C)c(S(=O)(=O)N(C)C)c2C)c1	inactive: 14% [at 46.1 µM]	
CCOc1ccc(S(=O)(=O)Nc2ccccc2C(=O)Nc2ccccc2N2CCOCC2)cc1		inconclusive: 5.8 µM [inhibitor, partial curve, poor fit]
C#CC(C)(C)NC(=O)c1ccccc1OC		inconclusive: 1.41 µM [inhibitor, partial curve, poor fit]
CC(NC(=O)COC(=O)CC(c1ccccc1)c1ccccc1)c1ccccc1 (stereo not drawn)		inconclusive: 9.2 µM [inhibitor, partial curve]
CCN(CC)c1ccc(C2NC(=O)c3ccccc3N2)cc1 (stereo not drawn)		active: 6.31 µM

Grouped by structure, those above containing bromine
SMILES	activity change, negative = inhibition	Potency
COc1ccc(C)cc1NC(=O)CN1CCCN(S(=O)(=O)c2ccc(Br)cc2)CC1		inconclusive: 7.08 µM [inhibitor, partial curve, poor fit]
O=C(Nc1ccc(Br)cc1)c1ccc(CSC2=NCCS2)cc1	inactive: -16.6%	
